In doi:10.1101/483925 one finds binding data, which are given here for one sequence.

Sequences of proteins named here, by UniProt entry; tags and fusion partners are left off.
UniProt Q9SXZ2: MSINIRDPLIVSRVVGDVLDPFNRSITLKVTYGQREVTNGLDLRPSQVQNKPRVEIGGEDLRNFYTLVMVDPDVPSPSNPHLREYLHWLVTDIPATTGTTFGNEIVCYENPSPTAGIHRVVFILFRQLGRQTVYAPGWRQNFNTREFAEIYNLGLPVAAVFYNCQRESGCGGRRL

Results are given in words; binding and its absence hold for the method and conditions named.

The assay concerns the target T1, FD-C, wild-type C-terminal domain of FD (amino acids 203-285) (Arabidopsis thaliana) (UniProt Q84JK2).
T1 sequence: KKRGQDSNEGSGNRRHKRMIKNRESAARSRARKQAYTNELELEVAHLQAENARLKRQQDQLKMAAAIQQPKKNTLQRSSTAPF
As to the kind of experiment: native gel or EMSA. A general note: In EMSA bound probe runs differently from free probe, usually more slowly.

Consider “FLOWERING LOCUS T (FT) (from UniProt Q9SXZ2 1-175)”, for which the binding result was “no binding”.
